Record: PubChem BioAssay AID1259281 (Sanger Institute, 2017)

- Assay: 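Identify essential genes and drug-enhancing knock-downs among kinases and common colorectal mutated genes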 (primary screen)
- Cells: human COLO678 colorectal cancer cell line
- Reagent: siRNA pool against human genes
- Conditions: anchor drugs at fixed doses: BYL719 1 µM, cetuximab 5 µg/ml or trametinib 10 nM; DMSO vehicle for the siRNA-alone arm
- Measurement: 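Surviving cells scaled to non-targeting siRNA control as replicate means; robust z-score for knock-down alone; synergy scores weigh knock-down with drug against the predicted combined effect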
- Reading the numbers: robust z-score, siRNA alone: higher = more viable cells; strongly negative means essential
- Rule for the call: 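Called essential (knock-down alone) if knock-down by itself drops cell number to a robust z-score under -3; all others no change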
- Meaning of the calls: active = essential (knock-down alone); inactive = no change
This is a random part of 794 deposited reagents. Over the whole deposit, 22 (2.8%) were called active. 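Calls rest on knock-down alone only; drug synergy scores play no part in them.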 A number with no mark means an inactive call. Further read-outs or replicates are left out here. Not given: the amount of reagent, the time to read-out.

MAP3K7 gave robust z-score, siRNA alone 0.473.
Silencing of SPEG came out at: robust z-score, siRNA alone 0.473.
Silencing of CHKA came out at: robust z-score, siRNA alone -3.03 (active).
Against ULK1 the deposit lists robust z-score, siRNA alone 0.473.
PIK3CB showed robust z-score, siRNA alone -0.694.
Against IKBKE the deposit lists robust z-score, siRNA alone 0.0683.
After knock-down of TBCK, the screen gave robust z-score, siRNA alone 0.0215.
Depletion of TP53BP1 came out at: robust z-score, siRNA alone -1.79.
After knock-down of PDXK, the record shows robust z-score, siRNA alone 0.473.
Silencing of MAP4K4 resulted in: robust z-score, siRNA alone 0.473.
GUCY2D scored robust z-score, siRNA alone -3.1 (active).
Against PDK1, the values are robust z-score, siRNA alone 0.393.
With knock-down of MAPK1, the record shows robust z-score, siRNA alone -1.26.

5 consecutive entries already listed:
SPEG → robust z-score, siRNA alone: 0.473
CHKA → robust z-score, siRNA alone: -3.03 (active)
ULK1 → robust z-score, siRNA alone: 0.473
PIK3CB → robust z-score, siRNA alone: -0.694
IKBKE → robust z-score, siRNA alone: 0.0683

Next entries follow:
Silencing of GRK1 gave: robust z-score, siRNA alone -1.5.
For BTK the deposit lists robust z-score, siRNA alone 0.473.
After knock-down of MARK3, the screen gave robust z-score, siRNA alone 0.473.
After knock-down of LYN, the screen gave robust z-score, siRNA alone 0.473.
PAPSS1 scored robust z-score, siRNA alone 0.255.
Knock-down of EPHA6 came out at: robust z-score, siRNA alone -5.51 (active).
AMHR2 gave robust z-score, siRNA alone 0.473.
Depletion of GRK2 came out at: robust z-score, siRNA alone 0.473.
For MTOR the deposit lists robust z-score, siRNA alone 0.473.
After knock-down of CDC42BPG, the record shows robust z-score, siRNA alone 0.473.
HIPK3 showed robust z-score, siRNA alone 0.473.
Silencing of RET came out at: robust z-score, siRNA alone 0.473.
FCSK gave robust z-score, siRNA alone 0.473.
Depletion of MASTL came out at: robust z-score, siRNA alone -0.0645.
Knock-down of NF1 came out at: robust z-score, siRNA alone 0.473.
